In the supplement of paper PMC10849652:
This is one part of the list.

Amino acid sequences for entries named in this document (tags omitted). A change or cut given only in a name is not applied to a line headed by its entry.
UniProt Q8N755: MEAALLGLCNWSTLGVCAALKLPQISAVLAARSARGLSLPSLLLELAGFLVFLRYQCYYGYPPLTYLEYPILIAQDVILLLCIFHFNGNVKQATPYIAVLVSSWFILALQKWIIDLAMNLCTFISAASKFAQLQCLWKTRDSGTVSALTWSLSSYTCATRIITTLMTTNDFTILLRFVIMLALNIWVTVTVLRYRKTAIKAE
UniProt Q9H015: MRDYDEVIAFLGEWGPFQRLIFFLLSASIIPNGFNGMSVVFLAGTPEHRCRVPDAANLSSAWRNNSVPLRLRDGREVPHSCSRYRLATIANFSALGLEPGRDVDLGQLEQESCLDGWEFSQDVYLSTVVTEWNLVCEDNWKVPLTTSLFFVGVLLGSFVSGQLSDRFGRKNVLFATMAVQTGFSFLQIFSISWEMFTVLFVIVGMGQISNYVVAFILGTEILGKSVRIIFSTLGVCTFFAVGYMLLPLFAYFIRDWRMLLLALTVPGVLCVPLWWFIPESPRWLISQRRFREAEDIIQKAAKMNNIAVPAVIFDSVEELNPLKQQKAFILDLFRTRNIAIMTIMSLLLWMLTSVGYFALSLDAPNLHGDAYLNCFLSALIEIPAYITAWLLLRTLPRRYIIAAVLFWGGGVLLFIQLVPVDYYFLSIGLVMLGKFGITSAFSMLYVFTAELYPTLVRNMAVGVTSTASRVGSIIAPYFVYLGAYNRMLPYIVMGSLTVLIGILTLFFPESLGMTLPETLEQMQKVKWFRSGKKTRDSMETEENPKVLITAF
UniProt Q9NQQ7: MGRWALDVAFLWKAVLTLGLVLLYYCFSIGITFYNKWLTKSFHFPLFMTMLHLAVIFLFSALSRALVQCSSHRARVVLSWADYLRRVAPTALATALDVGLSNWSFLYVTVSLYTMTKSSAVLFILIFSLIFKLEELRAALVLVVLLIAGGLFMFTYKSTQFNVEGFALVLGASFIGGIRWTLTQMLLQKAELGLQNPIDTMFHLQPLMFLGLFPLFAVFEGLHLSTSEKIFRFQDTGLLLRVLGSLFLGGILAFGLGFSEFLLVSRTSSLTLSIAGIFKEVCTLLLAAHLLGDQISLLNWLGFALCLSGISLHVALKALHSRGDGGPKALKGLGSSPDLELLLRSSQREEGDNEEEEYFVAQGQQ
UniProt Q8N2U9: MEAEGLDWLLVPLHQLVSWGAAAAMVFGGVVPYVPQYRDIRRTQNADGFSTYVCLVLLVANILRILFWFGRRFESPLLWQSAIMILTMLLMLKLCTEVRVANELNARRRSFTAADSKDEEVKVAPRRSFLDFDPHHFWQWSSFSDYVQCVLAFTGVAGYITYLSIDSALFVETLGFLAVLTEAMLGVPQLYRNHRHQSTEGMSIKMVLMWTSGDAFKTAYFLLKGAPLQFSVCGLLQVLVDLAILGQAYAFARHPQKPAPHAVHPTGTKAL
UniProt Q7Z769: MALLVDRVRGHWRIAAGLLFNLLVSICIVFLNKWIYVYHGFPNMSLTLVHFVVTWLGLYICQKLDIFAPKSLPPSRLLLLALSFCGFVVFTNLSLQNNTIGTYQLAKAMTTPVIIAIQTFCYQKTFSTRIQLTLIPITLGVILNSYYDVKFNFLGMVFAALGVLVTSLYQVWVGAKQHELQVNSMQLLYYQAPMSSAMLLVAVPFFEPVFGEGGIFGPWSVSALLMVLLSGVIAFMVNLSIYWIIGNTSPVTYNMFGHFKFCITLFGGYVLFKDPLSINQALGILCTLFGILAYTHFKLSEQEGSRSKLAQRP
UniProt Q9BS91: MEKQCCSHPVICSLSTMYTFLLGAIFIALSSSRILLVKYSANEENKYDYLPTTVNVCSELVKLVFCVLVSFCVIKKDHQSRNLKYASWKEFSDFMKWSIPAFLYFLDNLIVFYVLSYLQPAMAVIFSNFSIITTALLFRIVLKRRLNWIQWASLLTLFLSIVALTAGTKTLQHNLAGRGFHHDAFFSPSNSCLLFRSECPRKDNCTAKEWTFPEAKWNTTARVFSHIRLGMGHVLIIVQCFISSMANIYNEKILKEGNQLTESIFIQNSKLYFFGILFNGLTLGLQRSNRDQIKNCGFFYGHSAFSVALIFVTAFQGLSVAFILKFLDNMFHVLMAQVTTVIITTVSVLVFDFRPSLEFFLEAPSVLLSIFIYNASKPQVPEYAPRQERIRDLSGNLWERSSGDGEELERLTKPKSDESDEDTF
UniProt Q9UGH3: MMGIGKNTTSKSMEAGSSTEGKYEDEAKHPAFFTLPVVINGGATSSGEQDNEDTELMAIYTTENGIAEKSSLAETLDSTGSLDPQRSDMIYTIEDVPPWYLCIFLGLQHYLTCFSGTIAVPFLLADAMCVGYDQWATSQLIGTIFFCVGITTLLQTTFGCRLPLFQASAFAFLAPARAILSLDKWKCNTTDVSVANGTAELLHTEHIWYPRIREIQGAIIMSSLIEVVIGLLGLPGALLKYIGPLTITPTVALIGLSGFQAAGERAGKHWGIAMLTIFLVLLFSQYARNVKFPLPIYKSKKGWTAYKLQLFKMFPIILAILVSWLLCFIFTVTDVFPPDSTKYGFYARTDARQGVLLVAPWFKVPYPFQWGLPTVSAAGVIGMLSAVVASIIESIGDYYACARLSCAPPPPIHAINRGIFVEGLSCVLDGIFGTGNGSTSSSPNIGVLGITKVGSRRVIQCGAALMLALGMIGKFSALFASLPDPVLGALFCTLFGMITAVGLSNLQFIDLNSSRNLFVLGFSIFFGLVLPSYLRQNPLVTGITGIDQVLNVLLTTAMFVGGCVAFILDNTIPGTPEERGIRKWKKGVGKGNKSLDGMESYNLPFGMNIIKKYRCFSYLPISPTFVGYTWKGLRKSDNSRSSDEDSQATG
UniProt Q96NT5: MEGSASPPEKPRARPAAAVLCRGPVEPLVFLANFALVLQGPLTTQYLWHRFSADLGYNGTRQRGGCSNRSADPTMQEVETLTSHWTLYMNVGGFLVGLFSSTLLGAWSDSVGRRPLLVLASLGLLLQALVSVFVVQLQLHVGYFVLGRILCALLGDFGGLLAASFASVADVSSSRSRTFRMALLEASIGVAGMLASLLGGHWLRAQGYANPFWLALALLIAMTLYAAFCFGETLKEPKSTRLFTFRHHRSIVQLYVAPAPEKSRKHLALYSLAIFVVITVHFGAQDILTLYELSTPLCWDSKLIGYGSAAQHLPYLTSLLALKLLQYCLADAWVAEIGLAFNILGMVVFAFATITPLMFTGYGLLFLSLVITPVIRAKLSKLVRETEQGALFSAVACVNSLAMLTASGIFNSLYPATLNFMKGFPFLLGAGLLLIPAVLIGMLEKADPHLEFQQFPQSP
UniProt Q9NUM3: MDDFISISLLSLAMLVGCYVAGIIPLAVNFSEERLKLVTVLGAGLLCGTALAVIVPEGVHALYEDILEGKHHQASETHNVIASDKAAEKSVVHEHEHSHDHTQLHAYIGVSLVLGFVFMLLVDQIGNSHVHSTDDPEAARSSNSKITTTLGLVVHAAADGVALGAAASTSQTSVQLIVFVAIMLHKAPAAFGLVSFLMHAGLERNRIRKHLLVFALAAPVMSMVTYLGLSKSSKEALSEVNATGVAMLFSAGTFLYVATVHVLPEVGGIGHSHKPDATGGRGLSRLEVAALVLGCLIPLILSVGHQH
UniProt Q7Z2H8: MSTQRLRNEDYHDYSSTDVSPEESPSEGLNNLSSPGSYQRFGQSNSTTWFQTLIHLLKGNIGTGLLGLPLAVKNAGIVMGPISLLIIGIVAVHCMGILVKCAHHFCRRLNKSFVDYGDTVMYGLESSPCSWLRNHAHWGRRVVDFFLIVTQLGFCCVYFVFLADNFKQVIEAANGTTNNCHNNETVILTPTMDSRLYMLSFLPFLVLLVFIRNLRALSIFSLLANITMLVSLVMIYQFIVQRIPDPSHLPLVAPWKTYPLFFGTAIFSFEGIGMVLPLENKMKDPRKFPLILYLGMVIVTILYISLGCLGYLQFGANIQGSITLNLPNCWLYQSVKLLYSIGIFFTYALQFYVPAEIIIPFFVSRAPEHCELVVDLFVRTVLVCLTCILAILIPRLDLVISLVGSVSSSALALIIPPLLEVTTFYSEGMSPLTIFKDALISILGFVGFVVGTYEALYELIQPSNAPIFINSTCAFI
UniProt Q9BRV3: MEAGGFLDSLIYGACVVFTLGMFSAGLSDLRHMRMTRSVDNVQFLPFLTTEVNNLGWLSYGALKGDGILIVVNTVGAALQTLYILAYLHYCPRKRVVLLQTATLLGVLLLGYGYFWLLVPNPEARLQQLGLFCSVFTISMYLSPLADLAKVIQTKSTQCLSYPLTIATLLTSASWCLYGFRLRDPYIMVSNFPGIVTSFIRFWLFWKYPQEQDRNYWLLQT
UniProt Q969S0: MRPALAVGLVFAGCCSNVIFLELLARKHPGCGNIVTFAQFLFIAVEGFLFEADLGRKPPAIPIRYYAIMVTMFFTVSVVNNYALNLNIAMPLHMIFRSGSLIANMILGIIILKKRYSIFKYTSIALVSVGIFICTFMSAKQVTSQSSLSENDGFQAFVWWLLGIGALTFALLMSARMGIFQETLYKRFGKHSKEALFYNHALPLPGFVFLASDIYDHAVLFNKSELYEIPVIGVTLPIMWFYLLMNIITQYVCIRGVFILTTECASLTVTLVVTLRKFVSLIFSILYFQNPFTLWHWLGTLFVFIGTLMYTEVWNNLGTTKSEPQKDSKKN
UniProt O76082: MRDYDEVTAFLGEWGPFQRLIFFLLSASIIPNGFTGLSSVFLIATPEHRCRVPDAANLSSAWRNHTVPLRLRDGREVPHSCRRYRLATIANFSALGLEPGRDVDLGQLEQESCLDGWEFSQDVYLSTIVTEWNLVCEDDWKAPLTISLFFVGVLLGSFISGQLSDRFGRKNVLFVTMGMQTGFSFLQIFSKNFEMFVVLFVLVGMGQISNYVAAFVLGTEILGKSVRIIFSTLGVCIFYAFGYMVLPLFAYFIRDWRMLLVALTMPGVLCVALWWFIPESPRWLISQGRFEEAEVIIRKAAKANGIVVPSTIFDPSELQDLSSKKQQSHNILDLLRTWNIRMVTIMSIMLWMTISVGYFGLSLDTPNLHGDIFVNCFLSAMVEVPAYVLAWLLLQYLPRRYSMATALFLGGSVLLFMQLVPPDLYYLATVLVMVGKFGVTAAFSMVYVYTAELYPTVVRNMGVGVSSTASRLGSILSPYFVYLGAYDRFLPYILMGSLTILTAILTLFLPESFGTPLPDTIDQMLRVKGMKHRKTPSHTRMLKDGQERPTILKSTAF
UniProt Q96GZ6: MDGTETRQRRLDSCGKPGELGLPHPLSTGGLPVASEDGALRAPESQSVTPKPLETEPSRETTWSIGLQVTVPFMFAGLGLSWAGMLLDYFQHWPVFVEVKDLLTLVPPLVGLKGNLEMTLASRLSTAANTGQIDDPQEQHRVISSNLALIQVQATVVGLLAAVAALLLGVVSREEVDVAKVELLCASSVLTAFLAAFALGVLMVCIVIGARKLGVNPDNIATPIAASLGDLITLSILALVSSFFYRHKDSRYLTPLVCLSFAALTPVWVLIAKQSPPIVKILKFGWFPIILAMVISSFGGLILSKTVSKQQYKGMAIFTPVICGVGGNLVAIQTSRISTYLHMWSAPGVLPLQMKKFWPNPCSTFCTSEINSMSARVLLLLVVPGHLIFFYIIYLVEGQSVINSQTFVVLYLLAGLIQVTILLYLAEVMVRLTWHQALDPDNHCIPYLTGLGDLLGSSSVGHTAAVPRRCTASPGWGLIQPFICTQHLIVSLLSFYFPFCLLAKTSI
UniProt Q96A29: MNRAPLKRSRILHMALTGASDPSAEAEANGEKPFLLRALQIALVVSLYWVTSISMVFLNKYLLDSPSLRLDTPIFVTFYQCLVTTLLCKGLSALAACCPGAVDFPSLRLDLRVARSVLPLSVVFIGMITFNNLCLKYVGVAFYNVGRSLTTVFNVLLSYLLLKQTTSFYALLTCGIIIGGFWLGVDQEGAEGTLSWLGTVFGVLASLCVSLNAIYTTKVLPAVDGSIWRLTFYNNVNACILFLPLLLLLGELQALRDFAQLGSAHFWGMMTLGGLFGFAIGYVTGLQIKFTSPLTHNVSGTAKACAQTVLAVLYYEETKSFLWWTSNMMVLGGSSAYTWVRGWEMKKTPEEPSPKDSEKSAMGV
UniProt Q96K37: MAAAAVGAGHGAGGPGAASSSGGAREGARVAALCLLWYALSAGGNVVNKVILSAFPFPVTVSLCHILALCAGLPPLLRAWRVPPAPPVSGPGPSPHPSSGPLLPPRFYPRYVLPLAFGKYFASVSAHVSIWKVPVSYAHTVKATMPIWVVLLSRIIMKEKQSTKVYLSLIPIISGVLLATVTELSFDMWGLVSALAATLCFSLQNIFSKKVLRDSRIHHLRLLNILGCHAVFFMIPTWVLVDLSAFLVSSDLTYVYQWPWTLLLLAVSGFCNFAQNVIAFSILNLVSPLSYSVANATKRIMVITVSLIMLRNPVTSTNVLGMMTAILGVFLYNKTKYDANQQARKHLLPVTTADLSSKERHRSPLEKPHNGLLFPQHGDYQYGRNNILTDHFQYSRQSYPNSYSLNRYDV
UniProt O15431: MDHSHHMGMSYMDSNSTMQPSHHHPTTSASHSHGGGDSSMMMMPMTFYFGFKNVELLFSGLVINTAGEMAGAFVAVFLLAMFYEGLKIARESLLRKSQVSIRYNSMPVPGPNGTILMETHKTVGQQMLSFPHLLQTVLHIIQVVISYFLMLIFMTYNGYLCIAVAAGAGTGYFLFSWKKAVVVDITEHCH

Key:
Assay in all cases: log2 fold change, soluble protein after heating vs DMSO (PISA); higher = thermal stabilisation; K562 cells, 10 uM, 30 min; active = over 0.2 and 3.5 SD of the protein, either way, in both replicates (recomputed)
barasertib = compound: CCN(CCCOc1ccc2c(Nc3cc(CC(=O)Nc4cccc(F)c4)[nH]n3)ncnc2c1)CCOP(=O)(O)O [barasertib]
Procedure, shortened: (§1)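 Aliquots of K562 cells (2×10^6 cells/mL) treated with 10 μM compound for 30 min were heated for 3 min over 48°C-58°C. After pooling and extraction in PBS with 0.5% NP-40 at 4°C, soluble protein from a 21,000xg, 90 min spin was quantified by TMTpro 16plex LC-MS/MS with channel sums equalised. Thermal stability is expressed against control samples, from duplicates, as a log2 fold change.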

rosiglitazone = compound: CN(CCOC1=CC=C(C=C1)C[C@H]2C(=O)NC(=O)S2)C3=CC=CC=N3 (racemic) [rosiglitazone]
Procedure, shortened: as §1

[1] = compound: CC1=C(C=C(C=C1)NC(=O)C2=CC(=CC=C2)C(C)(C)C#N)NC3=CC4=C(C=C3)N=CN(C4=O)C
Procedure, shortened: as §1

Nexturastat A = compound: CCCCN(Cc1ccc(C(=O)NO)cc1)C(=O)Nc1ccccc1 [Nexturastat A]
Procedure, shortened: as §1

[2] = compound: CCCc1cc(C)[nH]c(=O)c1CNC(=O)c1cc(-c2ccnc(N3CCN(C)CC3)c2)cc2c1cnn2C(C)C
Procedure, shortened: as §1

givinostat = compound: CCN(CC)Cc1ccc2cc(COC(=O)Nc3ccc(C(=O)NO)cc3)ccc2c1 [givinostat]
Procedure, shortened: as §1

[3] = compound: CC[C@H](C)N1C=C(C2=C(C=C(C=C21)C3=CN=C(C=C3)N4CCNCC4)C(=O)NCC5=C(C=C(NC5=O)C)C)C
Procedure, shortened: as §1

epoxomicin = compound: CC[C@H](C)[C@@H](C(=O)N[C@@H]([C@@H](C)O)C(=O)N[C@@H](CC(C)C)C(=O)[C@]1(CO1)C)NC(=O)[C@H]([C@@H](C)CC)N(C)C(=O)C [epoxomicin]
Procedure, shortened: as §1

[4] = compound: CCn1c(C(=O)N(C2CC2)C2CC2)cc2c3c(ncn3C)c(Nc3cc(C)n(C)n3)nc21
Procedure, shortened: as §1

[5] = compound: CC1=CC=C(C=C1)SC2=C3C=C(SC3=CN=C2)C(=O)N
Procedure, shortened: as §1

[6] = compound: CCCS(=O)(=O)Nc1ccc(F)c(C(=O)c2c[nH]c3ncc(Cl)cc23)c1F
Procedure, shortened: as §1

volasertib = compound: CC[C@@H]1C(=O)N(C)c2cnc(Nc3ccc(C(=O)N[C@H]4CC[C@H](N5CCN(CC6CC6)CC5)CC4)cc3OC)nc2N1C(C)C [volasertib]
Procedure, shortened: as §1

[7] = compound: CC1=C(C=C(C=C1)NC(=O)C2=CC(=CC=C2)N(C)C)NC(=O)C3=CC=C(C=C3)O
Procedure, shortened: as §1

vemurafenib = compound: CCCS(=O)(=O)Nc1ccc(F)c(C(=O)c2c[nH]c3ncc(-c4ccc(Cl)cc4)cc23)c1F [vemurafenib]
Procedure, shortened: as §1

[8] = compound: CN(C)CC(=O)Nc1ccc2[nH]c(=O)c3ccccc3c2c1
Procedure, shortened: as §1

[9] = compound: CN1C2=C(C3=C1C(=O)N(N=C3)CC4=CC(=CC=C4)N)SC(=C2)S(=O)C
Procedure, shortened: as §1

[10] = compound: CC1=NC(=CC=C1)C2=C(N=C(N2)C(C)(C)C)C3=CC4=NC=CN=C4C=C3
Procedure, shortened: as §1

[11] = compound: CC[C@@H]1C(=O)N(C)c2cnc(Nc3ccc(C(=O)NC4CCN(C)CC4)cc3OC)nc2N1C1CCCC1
Procedure, shortened: as §1

[12] = compound: CCn1cc(-c2ccnc3[nH]c(-c4cccc(CN(C)C)c4)cc23)c(-c2ccc(NC(=O)N(C)C)cc2)n1
Procedure, shortened: as §1

[13] = compound: CN1CCC(CNc2ccc3ncc(-c4cccc(OC(F)(F)F)c4)n3n2)CC1
Procedure, shortened: as §1

Measured: log2 fold change

SLC36A1 (UniProt E5RG64)
inactive: barasertib 0.14 | rosiglitazone -0.306

SLC66A3 (UniProt Q8N755)
inactive: [1] 0.171 | Nexturastat A 0.019 | [2] 0.261 | givinostat 0.074 | [3] -0.171 | epoxomicin -0.227 | [4] -0.105

SLC43A3 (UniProt Q8NBI5)
inactive: [1] -0.11 | [5] -0.024 | Nexturastat A -0.052 | [6] -0.058 | volasertib 0.26 | epoxomicin 0.059

SLC22A4 (UniProt Q9H015)
inactive: [7] 0.193 | [5] -0.154 | Nexturastat A -0.044 | vemurafenib -0.051 | [6] -0.107 | volasertib 0.071 | epoxomicin -0.048 | [8] -0.013 | [9] -0.075

SLC35C2 isoform 3 (UniProt Q9NQQ7)
inactive: [7] -0.102 | [10] -0.07 | Nexturastat A 0.037 | givinostat 0.077 | barasertib -0.062 | [11] 0.048 | [3] -0.168 | epoxomicin 0.061 | [4] 0.169 | rosiglitazone 0.009

SLC66A2 (UniProt Q8N2U9)
inactive: Nexturastat A 0.013 | [2] -0.04 | givinostat -0.091 | barasertib 0.139 | [3] -0.085 | epoxomicin 0.103 | [4] 0.509 | rosiglitazone 0.175

SLC35E3 (UniProt Q7Z769)
inactive: [1] 0.402 | [5] 0.086 | Nexturastat A 0.011 | [6] 0.075 | givinostat 0.032 | volasertib 0 | [3] -0.183 | epoxomicin -0.111 | [4] 0.082 | [9] 0.05

SLC10A7 isoform 1 (UniProt Q0GE19)
inactive: [7] 0.11 | [5] 0.046 | [6] 0.033 | [2] -0.109 | givinostat -0.053 | barasertib -0.029 | [11] 0.02 | volasertib -0.031 | [3] 0.18 | [4] -0.028 | rosiglitazone -0.027

SLC35A5 (UniProt Q9BS91)
inactive: Nexturastat A -0.039 | givinostat 0.147 | epoxomicin 0.018 | [4] -0.017 | [9] -0.096

SLC10A3 (UniProt P09131)
inactive: Nexturastat A -0.244 | [2] -0.066 | givinostat 0.073 | barasertib 0 | [3] 0.004 | epoxomicin 0.141 | [4] 0.044 | rosiglitazone -0.081

SLC23A2 (UniProt Q9UGH3)
inactive: [1] -0.049 | [10] -0.046 | givinostat -0.068 | barasertib 0.596 | [3] 0.035 | [4] -0.037 | rosiglitazone 0.084

SLC1A3 (UniProt P43003)
inactive: [7] -0.047 | [5] 0.043 | Nexturastat A -0.099 | vemurafenib -0.043 | [6] -0.095 | [2] -0.127 | givinostat -0.1 | barasertib -0.01 | [11] -0.065 | volasertib 0.003 | [3] 0.018 | epoxomicin 0.087 | [12] -0.101 | [8] -0.048 | [9] -0.286 | [13] 0.254

SLC3A2 (UniProt F5GZS6)
inactive: [7] 0.093 | [5] -0.07 | [10] 0.189 | Nexturastat A 0.011 | vemurafenib 0.13 | [6] -0.168 | [2] -0.061 | givinostat 0.251 | barasertib -0.014 | [11] 0.174 | volasertib 0.049 | [3] -0.023 | epoxomicin 0.085 | [4] -0.094 | [8] -0.316 | rosiglitazone -0.014 | [9] 0.015

SLC46A1 (UniProt Q96NT5)
inactive: vemurafenib 0.056 | givinostat 0.011 | [11] 0.156 | [12] -0.072 | [8] -0.041 | [13] 0.087

SLC39A9 (UniProt Q9NUM3)
inactive: vemurafenib -0.21 | [8] 0.242

SLC26A11 (UniProt I3L0N9)
inactive: barasertib 0.261 | rosiglitazone 0.078

SLC26A2 (UniProt P50443)
inactive: [10] 0.064 | Nexturastat A 0.164 | vemurafenib -0.036 | [2] 0.047 | [3] -0.251 | epoxomicin 0.045 | [12] 0.089 | [8] 0.007 | [9] 0.292 | [13] -0.116

SLC36A1 (UniProt Q7Z2H8)
inactive: [10] 0.116 | [2] 0.052 | givinostat -0.032 | [4] -0.087 | [9] -0.103

SLC35D1 (UniProt Q9NTN3)
inactive: [5] -0.052 | vemurafenib 0.012 | [6] 0.065 | volasertib -0.363 | [8] 0.012

SLC50A1 (UniProt Q9BRV3)
inactive: [7] 0.012 | [5] 0.03 | [10] 0.044 | [6] -0.141 | [2] 0.143 | givinostat 0.141 | barasertib 0.091 | [11] 0.066 | volasertib -0.064 | [4] -0.191 | rosiglitazone 0.033 | [9] 0.043

SLC25A35 (UniProt Q3KQZ1)
inactive: [5] -0.188 | [10] -0.033 | vemurafenib -0.037 | [6] 0.118 | givinostat 0.034 | [11] -0.109 | volasertib 0.065 | [4] -0.025 | [12] -0.016 | [8] 0.002 | [9] 0.075 | [13] 0.033

SLC35B4 (UniProt Q969S0)
inactive: [1] 0.018 | [10] -0.064 | Nexturastat A -0.061 | vemurafenib 0.062 | [2] -0.002 | givinostat 0.077 | barasertib -0.01 | [11] -0.003 | [3] -0.041 | epoxomicin 0.044 | [8] -0.134

SLC22A5 isoform 3 (UniProt O76082)
inactive: [5] -0.075 | [10] -0.067 | Nexturastat A 0.103 | vemurafenib -0.084 | [6] -0.016 | barasertib -0.21 | volasertib 0.015 | [3] 0.109 | epoxomicin 0.178 | [12] -0.074 | [8] -0.03 | rosiglitazone 0.031 | [13] 0.375

SLC6A19 (UniProt Q695T7)
inactive: [5] -0.145 | [6] -0.218 | [2] -0.106 | volasertib 0.078 | [9] 0.038

SLC41A3 isoform 9 (UniProt Q96GZ6)
inactive: [1] -0.026 | [10] -0.036 | Nexturastat A -0.176 | [2] -0.254 | givinostat 0.007 | barasertib -0.088 | [11] 0.081 | [3] -0.072 | epoxomicin -0.07 | [4] 0.009 | [12] 0.081 | rosiglitazone 0.062 | [13] -0.058

SLC35C1 (UniProt Q96A29)
inactive: [7] 0.05 | [5] -0.074 | [10] -0.07 | Nexturastat A -0.155 | vemurafenib 0.033 | [6] -0.038 | givinostat -0.043 | barasertib -0.008 | [11] -0.074 | volasertib 0.087 | [3] -0.1 | epoxomicin -0.152 | [4] 0.031 | [12] 0.058 | [8] 0.075 | rosiglitazone 0.032 | [9] -0.037 | [13] 0.073

SLC25A29 (UniProt Q8N8R3)
inactive: [7] -0.07 | [5] 0.07 | [10] -0.016 | [6] 0.047 | givinostat -0.172 | [11] 0.356 | volasertib 0.052 | [4] 0.135 | [9] -0.262

SLC36A4 (UniProt Q6YBV0)
inactive: [7] -0.04 | Nexturastat A 0.091 | [2] -0.162 | givinostat 0.127 | barasertib 0.038 | epoxomicin 0.419 | [4] -0.136 | rosiglitazone 0.049

SLC35E1 (UniProt Q96K37)
inactive: [7] -0.052 | [5] 0.047 | [10] 0.028 | Nexturastat A 0.159 | vemurafenib 0.001 | [6] 0.081 | [2] -0.146 | givinostat -0.019 | barasertib -0.038 | [11] -0.166 | volasertib -0.097 | [3] -0.011 | epoxomicin -0.037 | [4] 0.137 | [12] -0.012 | [8] 0.049 | rosiglitazone 0.04 | [9] 0.081 | [13] 0.051

SLC27A6 (UniProt Q9Y2P4)
inactive: [7] -0.02 | Nexturastat A 0.197 | vemurafenib 0.267 | [2] 0.011 | givinostat -0.005 | barasertib -0.101 | [3] 0.035 | epoxomicin -0.022 | [4] 0.014 | [8] -0.048 | rosiglitazone 0.17

Quoted from the results shown (2 entries):
SLC25A29 (UniProt Q8N8R3)
inactive: [7] -0.07 | [5] 0.07 | [10] -0.016 | [6] 0.047 | givinostat -0.172 | [11] 0.356 | volasertib 0.052 | [4] 0.135 | [9] -0.262

SLC36A4 (UniProt Q6YBV0)
inactive: [7] -0.04 | Nexturastat A 0.091 | [2] -0.162 | givinostat 0.127 | barasertib 0.038 | epoxomicin 0.419 | [4] -0.136 | rosiglitazone 0.049

The list goes on.

SLC52A2 (UniProt Q9HAB3)
inactive: [2] -0.021 | givinostat -0.005 | barasertib -0.027 | [11] -0.055 | [3] -0.039 | [4] -0.037 | [12] -0.112 | rosiglitazone -0.089 | [13] 0.317

SLC4A3 isoform 3 (UniProt P48751)
inactive: [2] -0.198 | barasertib 0.061 | [3] -0.136 | rosiglitazone 0.081

SLC31A1 (UniProt O15431)
inactive: [7] -0.112 | [5] 0 | [10] 0.019 | Nexturastat A 0.028 | vemurafenib 0.011 | [6] -0.028 | [2] 0.043 | givinostat 0.033 | barasertib 0.031 | [11] 0.085 | volasertib 0.155 | epoxomicin 0.122 | [4] 0.01 | [12] 0.015 | [8] 0.009 | rosiglitazone -0.04 | [9] -0.189 | [13] 0.256

SLC15A4 (UniProt Q8N697)
inactive: [7] -0.014 | [5] 0.084 | [10] 0.052 | vemurafenib -0.068 | [6] -0.065 | [2] 0.002 | givinostat 0.045 | barasertib -0.034 | [11] 0.05 | volasertib -0.026 | [3] 0.131 | [4] 0.046 | [8] 0.033 | rosiglitazone 0.104 | [9] -0.115
